{"source": "patent US12653892B2", "about": "“Composition and method for new therapeutic agents including guanidinium-presenting dendrimers and branched structures” (priority 2020, dated 2026)", "key": {"[1]": {"tested_on": "E. faecium ATCC 51559 (VRE)", "assay": "MIC by broth microdilution, E. faecium ATCC 51559 (VRE)", "type": "cell-based", "conditions": "Enterococcus faecium", "method": "(§1) Methods—Determination of MICs: MICs for S. aureus, E. faecium, E. coli, P aeruginosa, A. baumannii, K. pneumoniae were determined using broth microdilution in accordance with CLSI methods (Wiegand, I.; Hilpert, K.; Hancock, R. E. W. Agar and Broth Dilution Methods to Determine the Minimal Inhibitory Concentration (MIC) of Antimicrobial Substances. Nat. Protoc. 2008, 3, 163-175). One day prior to each MIC experiment, bacterial strains were streaked for single colonies on TSA plates from frozen glycerol stocks stored at −80° C. Three to five colonies from each plate were harvested with a disposable inoculating loop and resuspended in 500 μL of PBS to create a bacterial suspension. Alternatively, a single colony of the appropriate bacterial strain was added to 4 mL TSB for overnight growth at 37° C. with 200 rpm shaking to create a stationary phase bacterial suspension. The suspension was diluted in PBS to an OD600 of 0.1 (˜[…] CFU/ml), and the OD 0.1 suspension was diluted 1:100 in Mueller Hinton broth (MHB, Difco 257530) just prior to inoculating the 96-well polypropylene treatment plate (Costar 3879). […] The MIC was read as the lowest treatment concentration where no bacterial growth occurred, as determined by OD600 measurements on a microplate reader. […]"}, "P. aeruginosa PA14": {"tested_on": "P. aeruginosa PA14", "assay": "MIC by broth microdilution, P. aeruginosa PA14", "type": "cell-based", "conditions": "Pseudomonas aeruginosa", "method": "as §1"}}, "data": [{"compound": "CN[C@H](CC(C)C)C(=O)N[C@H]1C(=O)N[C@@H](CC(N)=O)C(=O)N[C@H]2C(=O)N[C@H]3C(=O)N[C@H](C(=O)N[C@H](C(=O)O)c4cc(O)cc(O)c4-c4cc3ccc4O)[C@H](O)c3ccc(c(Cl)c3)Oc3cc2cc(c3O[C@@H]2O[C@H](CO)[C@@H](O)[C@H](O)[C@H]2O[C@H]2C[C@](C)(N)[C@H](O)[C@H](C)O2)Oc2ccc(cc2Cl)[C@H]1O", "note": "[Vancomycin]", "values": [{"measurement": "MIC", "setting": "[1]", "result": 512, "unit": "µM"}, {"measurement": "MIC", "setting": "P. aeruginosa PA14", "result": "> 256", "unit": "µM"}]}]}
